In the supplement of paper PMC6411743:
± gives the standard deviation of the averaged measurements. The list shows a part of the results.

Protein sequences, listed by entry. Tags and fused reporters are not part of them. Lines headed by an entry give the natural chain unless they say otherwise; changes in a name come on top.
UniProt Q66K64, whole entry: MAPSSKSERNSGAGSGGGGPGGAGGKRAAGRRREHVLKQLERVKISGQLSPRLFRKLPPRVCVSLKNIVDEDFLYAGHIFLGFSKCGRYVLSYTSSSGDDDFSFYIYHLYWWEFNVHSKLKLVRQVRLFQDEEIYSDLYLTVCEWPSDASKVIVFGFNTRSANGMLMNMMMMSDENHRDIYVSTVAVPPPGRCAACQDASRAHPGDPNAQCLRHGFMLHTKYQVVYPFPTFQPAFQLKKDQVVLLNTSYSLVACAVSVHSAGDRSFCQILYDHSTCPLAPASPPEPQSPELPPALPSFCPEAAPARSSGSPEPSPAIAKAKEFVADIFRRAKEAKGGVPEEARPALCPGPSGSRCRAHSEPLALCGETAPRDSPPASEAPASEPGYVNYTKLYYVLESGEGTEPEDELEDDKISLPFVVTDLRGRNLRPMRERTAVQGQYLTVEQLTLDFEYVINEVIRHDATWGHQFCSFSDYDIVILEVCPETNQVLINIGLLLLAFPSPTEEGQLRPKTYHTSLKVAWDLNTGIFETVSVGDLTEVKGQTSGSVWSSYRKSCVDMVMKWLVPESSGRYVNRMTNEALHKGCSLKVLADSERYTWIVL
UniProt Q6GMV3: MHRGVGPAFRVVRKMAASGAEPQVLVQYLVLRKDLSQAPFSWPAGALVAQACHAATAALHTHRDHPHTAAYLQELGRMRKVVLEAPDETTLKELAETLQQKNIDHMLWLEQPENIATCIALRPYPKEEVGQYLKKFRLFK
UniProt Q6IPR3: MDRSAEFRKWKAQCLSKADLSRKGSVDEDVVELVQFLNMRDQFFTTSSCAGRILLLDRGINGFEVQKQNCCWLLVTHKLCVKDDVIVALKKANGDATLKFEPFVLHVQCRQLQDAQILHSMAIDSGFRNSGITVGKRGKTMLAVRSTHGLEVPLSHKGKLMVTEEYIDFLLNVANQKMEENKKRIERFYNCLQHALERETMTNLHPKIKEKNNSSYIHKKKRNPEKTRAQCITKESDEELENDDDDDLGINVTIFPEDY
UniProt Q7Z4G1, whole entry: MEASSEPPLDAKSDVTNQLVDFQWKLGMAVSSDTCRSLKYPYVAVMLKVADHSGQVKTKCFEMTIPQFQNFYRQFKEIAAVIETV
UniProt Q7Z6M1: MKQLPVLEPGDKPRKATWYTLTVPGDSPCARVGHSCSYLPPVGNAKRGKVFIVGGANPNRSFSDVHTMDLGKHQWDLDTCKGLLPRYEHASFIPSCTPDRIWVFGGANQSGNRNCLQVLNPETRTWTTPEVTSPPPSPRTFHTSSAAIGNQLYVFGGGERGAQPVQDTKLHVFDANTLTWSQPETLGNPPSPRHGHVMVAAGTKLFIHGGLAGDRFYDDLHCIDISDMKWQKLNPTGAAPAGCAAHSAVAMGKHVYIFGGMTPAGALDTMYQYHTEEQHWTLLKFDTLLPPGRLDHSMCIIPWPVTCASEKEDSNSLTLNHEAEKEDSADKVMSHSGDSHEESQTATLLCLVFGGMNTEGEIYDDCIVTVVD
UniProt Q6ZSS7: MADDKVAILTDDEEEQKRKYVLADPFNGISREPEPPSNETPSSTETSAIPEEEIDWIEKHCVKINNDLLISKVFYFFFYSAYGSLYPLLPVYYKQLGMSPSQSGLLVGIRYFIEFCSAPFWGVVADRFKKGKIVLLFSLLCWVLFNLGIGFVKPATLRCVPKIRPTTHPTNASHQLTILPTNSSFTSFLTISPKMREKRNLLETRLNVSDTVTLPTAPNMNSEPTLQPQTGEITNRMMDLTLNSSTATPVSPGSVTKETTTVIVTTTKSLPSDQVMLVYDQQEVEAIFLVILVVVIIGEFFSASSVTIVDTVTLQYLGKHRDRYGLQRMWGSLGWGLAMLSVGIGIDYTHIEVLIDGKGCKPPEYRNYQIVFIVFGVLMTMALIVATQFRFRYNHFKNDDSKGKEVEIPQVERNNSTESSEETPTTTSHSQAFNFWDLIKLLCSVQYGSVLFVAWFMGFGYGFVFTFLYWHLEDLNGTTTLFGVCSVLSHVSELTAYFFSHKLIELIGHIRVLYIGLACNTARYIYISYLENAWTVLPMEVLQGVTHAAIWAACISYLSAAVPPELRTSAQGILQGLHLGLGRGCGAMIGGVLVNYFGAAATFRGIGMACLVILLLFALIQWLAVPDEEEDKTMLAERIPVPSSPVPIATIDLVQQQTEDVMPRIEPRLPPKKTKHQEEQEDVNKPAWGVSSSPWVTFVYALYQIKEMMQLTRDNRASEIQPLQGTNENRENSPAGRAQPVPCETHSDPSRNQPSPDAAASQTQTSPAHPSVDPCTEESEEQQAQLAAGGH
UniProt Q6P179: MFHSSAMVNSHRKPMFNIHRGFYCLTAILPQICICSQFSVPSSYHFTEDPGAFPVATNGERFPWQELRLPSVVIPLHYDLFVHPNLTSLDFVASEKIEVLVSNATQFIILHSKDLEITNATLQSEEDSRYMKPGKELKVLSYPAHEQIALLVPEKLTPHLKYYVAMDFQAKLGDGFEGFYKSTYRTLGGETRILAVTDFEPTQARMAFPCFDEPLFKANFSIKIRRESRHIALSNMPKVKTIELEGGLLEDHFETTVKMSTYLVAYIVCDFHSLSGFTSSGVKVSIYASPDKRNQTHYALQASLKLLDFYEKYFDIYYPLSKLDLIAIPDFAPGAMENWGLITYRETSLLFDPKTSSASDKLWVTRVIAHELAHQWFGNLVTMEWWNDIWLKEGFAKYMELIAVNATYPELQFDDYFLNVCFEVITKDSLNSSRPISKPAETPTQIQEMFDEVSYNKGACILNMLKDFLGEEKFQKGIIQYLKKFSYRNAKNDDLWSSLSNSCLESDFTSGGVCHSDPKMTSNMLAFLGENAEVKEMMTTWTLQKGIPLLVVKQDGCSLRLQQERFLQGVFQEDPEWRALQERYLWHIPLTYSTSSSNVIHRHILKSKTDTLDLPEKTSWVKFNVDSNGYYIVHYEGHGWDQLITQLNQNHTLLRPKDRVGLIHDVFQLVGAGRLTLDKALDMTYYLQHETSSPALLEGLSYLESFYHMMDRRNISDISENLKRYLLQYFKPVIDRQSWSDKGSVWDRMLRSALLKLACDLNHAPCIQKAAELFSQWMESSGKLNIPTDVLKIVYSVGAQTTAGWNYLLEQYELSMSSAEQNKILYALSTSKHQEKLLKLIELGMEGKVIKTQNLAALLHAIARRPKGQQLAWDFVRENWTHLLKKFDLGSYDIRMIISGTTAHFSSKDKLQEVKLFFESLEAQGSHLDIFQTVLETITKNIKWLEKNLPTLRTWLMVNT
UniProt Q7L1T6: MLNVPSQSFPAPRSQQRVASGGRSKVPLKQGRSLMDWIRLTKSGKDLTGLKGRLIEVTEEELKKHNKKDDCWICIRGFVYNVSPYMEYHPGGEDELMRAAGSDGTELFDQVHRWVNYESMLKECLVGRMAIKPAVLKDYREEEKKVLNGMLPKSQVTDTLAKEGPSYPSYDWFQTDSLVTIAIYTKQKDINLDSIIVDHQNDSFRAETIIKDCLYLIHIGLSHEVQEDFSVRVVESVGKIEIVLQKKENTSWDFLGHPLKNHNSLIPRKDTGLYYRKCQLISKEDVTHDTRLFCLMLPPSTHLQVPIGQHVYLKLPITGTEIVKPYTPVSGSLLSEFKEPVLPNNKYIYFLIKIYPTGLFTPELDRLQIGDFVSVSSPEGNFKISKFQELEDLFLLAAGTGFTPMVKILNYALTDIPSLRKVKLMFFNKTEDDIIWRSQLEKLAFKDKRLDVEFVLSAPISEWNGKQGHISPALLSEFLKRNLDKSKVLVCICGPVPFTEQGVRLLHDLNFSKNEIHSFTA
UniProt Q6P9B9, whole entry: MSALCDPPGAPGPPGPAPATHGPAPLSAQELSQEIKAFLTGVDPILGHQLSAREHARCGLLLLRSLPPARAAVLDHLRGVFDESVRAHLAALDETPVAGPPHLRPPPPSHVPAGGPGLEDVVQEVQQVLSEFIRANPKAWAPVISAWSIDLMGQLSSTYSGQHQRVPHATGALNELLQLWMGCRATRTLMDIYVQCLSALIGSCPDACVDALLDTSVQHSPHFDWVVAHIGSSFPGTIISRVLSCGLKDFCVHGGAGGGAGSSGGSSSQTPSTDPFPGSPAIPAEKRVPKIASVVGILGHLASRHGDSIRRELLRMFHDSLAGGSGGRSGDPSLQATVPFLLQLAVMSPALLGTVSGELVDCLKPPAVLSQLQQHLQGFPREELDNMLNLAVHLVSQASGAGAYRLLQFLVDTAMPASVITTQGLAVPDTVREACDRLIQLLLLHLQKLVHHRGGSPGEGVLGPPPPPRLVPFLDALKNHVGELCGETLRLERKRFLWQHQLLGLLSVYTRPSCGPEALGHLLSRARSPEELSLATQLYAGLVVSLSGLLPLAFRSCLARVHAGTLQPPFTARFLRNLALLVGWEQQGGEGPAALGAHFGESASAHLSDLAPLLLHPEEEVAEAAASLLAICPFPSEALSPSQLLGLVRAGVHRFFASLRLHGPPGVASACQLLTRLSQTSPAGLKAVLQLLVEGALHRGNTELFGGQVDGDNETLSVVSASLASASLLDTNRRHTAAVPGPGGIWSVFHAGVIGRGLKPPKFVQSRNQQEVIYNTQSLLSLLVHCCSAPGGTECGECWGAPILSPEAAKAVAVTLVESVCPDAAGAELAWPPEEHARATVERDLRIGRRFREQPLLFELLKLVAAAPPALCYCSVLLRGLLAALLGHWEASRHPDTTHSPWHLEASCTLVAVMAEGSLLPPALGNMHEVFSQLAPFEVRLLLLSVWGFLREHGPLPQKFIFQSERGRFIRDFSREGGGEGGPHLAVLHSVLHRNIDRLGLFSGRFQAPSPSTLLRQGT
UniProt Q5VWP2: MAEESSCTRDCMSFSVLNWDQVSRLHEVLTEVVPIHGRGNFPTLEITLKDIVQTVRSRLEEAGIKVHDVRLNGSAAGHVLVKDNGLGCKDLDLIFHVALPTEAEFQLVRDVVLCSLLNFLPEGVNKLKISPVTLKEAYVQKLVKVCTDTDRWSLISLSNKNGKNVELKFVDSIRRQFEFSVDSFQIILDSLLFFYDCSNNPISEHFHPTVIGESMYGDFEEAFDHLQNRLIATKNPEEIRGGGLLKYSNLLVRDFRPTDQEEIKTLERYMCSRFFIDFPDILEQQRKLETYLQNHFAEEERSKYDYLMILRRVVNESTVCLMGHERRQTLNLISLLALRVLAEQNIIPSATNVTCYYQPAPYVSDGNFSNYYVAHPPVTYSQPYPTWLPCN
UniProt Q6ZNB6: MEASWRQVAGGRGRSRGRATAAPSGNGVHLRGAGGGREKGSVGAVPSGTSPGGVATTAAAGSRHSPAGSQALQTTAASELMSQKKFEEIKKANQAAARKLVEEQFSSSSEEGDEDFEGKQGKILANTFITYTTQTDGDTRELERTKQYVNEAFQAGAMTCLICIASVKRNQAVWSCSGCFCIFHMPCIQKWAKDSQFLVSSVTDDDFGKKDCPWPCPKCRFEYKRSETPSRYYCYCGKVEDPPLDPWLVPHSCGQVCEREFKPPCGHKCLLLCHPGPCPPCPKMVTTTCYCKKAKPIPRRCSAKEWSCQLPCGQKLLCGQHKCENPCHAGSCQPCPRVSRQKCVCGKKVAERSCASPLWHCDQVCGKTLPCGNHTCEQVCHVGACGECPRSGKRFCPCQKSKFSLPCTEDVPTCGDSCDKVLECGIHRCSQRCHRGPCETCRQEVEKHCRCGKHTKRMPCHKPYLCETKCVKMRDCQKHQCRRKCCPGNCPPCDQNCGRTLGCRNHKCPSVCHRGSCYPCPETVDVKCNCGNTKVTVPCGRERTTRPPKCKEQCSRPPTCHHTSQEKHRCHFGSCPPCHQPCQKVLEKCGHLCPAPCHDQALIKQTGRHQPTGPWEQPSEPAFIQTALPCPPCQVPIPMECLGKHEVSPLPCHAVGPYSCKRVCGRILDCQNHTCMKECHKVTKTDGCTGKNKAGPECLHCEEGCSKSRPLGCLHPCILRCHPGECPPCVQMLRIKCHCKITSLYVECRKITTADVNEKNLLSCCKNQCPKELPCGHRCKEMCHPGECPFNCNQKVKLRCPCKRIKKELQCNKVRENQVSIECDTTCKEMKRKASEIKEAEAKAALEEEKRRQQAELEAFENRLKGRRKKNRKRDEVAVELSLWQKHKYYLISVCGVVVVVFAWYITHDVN
UniProt Q6YP21: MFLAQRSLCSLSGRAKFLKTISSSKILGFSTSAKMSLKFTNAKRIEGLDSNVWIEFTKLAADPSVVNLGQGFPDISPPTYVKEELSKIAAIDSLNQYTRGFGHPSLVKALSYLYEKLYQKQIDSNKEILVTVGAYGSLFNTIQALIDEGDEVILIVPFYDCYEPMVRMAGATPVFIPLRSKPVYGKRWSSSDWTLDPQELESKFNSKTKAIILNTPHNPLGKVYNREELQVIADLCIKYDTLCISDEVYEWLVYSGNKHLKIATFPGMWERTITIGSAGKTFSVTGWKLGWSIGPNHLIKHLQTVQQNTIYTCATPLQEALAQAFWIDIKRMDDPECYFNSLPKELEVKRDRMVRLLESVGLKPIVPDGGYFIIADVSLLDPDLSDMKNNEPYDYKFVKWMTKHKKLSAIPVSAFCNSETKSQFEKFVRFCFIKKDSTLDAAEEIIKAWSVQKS

Compound: Nc1nc2c(ncn2[C@@H]2O[C@H](COP(=O)(O)OP(=O)(O)OP(=O)(O)O)[C@@H](O)[C@H]2O)c(=O)[nH]1 [guanosine triphosphate]
Assay: NP40-soluble protein abundance relative to vehicle (solubility fold change) (ratio); higher = more soluble protein in presence of GTP
How it was run: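 Each value is a fold change relative to the detergent-processed vehicle, calculated per replicate from vsn-normalised intensities. Jurkat crude lysate received eight concentrations (0.1 to 10 mM) for 10 min at room temperature and 3 min at 37 °C, then was solubilised in 0.8% NP40 with benzonase (60 min, 4 °C). The ultracentrifuged supernatant was TMT-labelled and run by LC-MS/MS in three independent experiments.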

Target	NP40-soluble protein abundance (concentration: 0.1mM)	NP40-soluble protein abundance (concentration: 0.5mM)	NP40-soluble protein abundance (concentration: 1mM)	NP40-soluble protein abundance (concentration: 2mM)	NP40-soluble protein abundance (concentration: 4mM)	NP40-soluble protein abundance (concentration: 6mM)	NP40-soluble protein abundance (concentration: 8mM)	NP40-soluble protein abundance (concentration: 10mM)
LARP1 (UniProt Q6PKG0)	1.02 ± 0.039	1.11 ± 0.06	1.32 ± 0.1	1.46 ± 0.11	1.66 ± 0.16	1.78 ± 0.17	1.88 ± 0.22	1.99 ± 0.22
DCAF15 (UniProt Q66K64)	0.927 ± 0.097	0.82 ± 0.1	0.965 ± 0.02	0.948 ± 0.16	0.851 ± 0.16	0.866 ± 0.12	0.807 ± 0.089	0.891 ± 0.14
UniProt Q86TI2 and related entries	1.11 ± 0.033	1.08 ± 0.015	1.01 ± 0.026	0.995 ± 0.05	1.01 ± 0.065	0.919 ± 0.043	0.933 ± 0.04	0.909 ± 0.089
UniProt Q86VN1 and related entries	0.996 ± 0.039	1.02 ± 0.05	0.96 ± 0.06	0.941 ± 0.047	0.915 ± 0.068	0.946 ± 0.045	0.937 ± 0.034	0.952 ± 0.034
PRPF8 (UniProt Q6P2Q9)	1.1 ± 0.079	1.2 ± 0.17	1.12 ± 0.18	1.24 ± 0.26	1.33 ± 0.27	1.43 ± 0.33	1.46 ± 0.27	1.41 ± 0.27
UniProt Q6GYQ0 and related entries	1.07 ± 0.048	1.08 ± 0.064	1.09 ± 0.069	1.07 ± 0.066	1.12 ± 0.13	1.06 ± 0.11	1.12 ± 0.13	1.07 ± 0.11
THOC7 (UniProt Q6I9Y2)	0.999 ± 0.13	1.15 ± 0.095	1.6 ± 0.23	1.92 ± 0.32	2.31 ± 0.58	2.51 ± 0.63	2.43 ± 0.56	2.78 ± 0.98
UniProt Q6GMV3	0.902 ± 0.087	0.887 ± 0.048	0.997 ± 0.088	0.925 ± 0.044	0.912 ± 0.034	0.945 ± 0.12	0.969 ± 0.11	1.01 ± 0.098
UniProt Q6IPR3 and related entries	1.09 ± 0.034	1.14 ± 0.04	0.948 ± 0.12	0.961 ± 0.23	0.956 ± 0.23	0.968 ± 0.16	0.987 ± 0.14	0.972 ± 0.093
TMED4 (UniProt Q7Z7H5)	1 ± 0.02	1.03 ± 0.035	0.953 ± 0.055	0.959 ± 0.0098	0.943 ± 0.029	0.955 ± 0.047	0.966 ± 0.052	0.938 ± 0.068
UniProt Q7L1Q6 and related entries	0.936 ± 0.038	0.917 ± 0.024	0.92 ± 0.043	0.885 ± 0.044	0.869 ± 0.062	0.864 ± 0.06	0.842 ± 0.077	0.838 ± 0.064
COMMD6 (UniProt Q7Z4G1)	0.965 ± 0.082	0.928 ± 0.07	1.03 ± 0.066	1.04 ± 0.046	1 ± 0.046	1.01 ± 0.052	0.951 ± 0.072	1.05 ± 0.061
UniProt Q6PJG6	1.03 ± 0.063	1.02 ± 0.064	0.98 ± 0.086	1.01 ± 0.1	0.978 ± 0.077	0.974 ± 0.059	0.962 ± 0.031	0.958 ± 0.082
RABEPK (UniProt Q7Z6M1)	1 ± 0.048	0.966 ± 0.036	1.01 ± 0.084	0.936 ± 0.063	0.968 ± 0.069	0.922 ± 0.1	0.936 ± 0.058	0.916 ± 0.079
TAF3 (UniProt Q5VWG9)	1.01 ± 0.018	0.9888 ± 0.0024	0.961 ± 0.043	0.958 ± 0.02	0.954 ± 0.033	0.969 ± 0.015	0.932 ± 0.014	1 ± 0.026
UniProt Q6ZSS7 and related entries	0.911 ± 0.11	0.781 ± 0.16	0.922 ± 0.1	0.934 ± 0.015	0.896 ± 0.025	0.948 ± 0.054	0.831 ± 0.16	0.957 ± 0.085
ANKRD54 (UniProt Q6NXT1)	0.946 ± 0.055	0.874 ± 0.075	1.02 ± 0.056	0.945 ± 0.05	0.984 ± 0.091	0.941 ± 0.081	0.923 ± 0.11	0.951 ± 0.041

Random excerpt: two entries already listed.
Target	NP40-soluble protein abundance (concentration: 0.1mM)	NP40-soluble protein abundance (concentration: 0.5mM)	NP40-soluble protein abundance (concentration: 1mM)	NP40-soluble protein abundance (concentration: 2mM)	NP40-soluble protein abundance (concentration: 4mM)	NP40-soluble protein abundance (concentration: 6mM)	NP40-soluble protein abundance (concentration: 8mM)	NP40-soluble protein abundance (concentration: 10mM)
DCAF15 (UniProt Q66K64)	0.927 ± 0.097	0.82 ± 0.1	0.965 ± 0.02	0.948 ± 0.16	0.851 ± 0.16	0.866 ± 0.12	0.807 ± 0.089	0.891 ± 0.14
UniProt Q6PJG6	1.03 ± 0.063	1.02 ± 0.064	0.98 ± 0.086	1.01 ± 0.1	0.978 ± 0.077	0.974 ± 0.059	0.962 ± 0.031	0.958 ± 0.082

Carrying on.

Target	NP40-soluble protein abundance (concentration: 0.1mM)	NP40-soluble protein abundance (concentration: 0.5mM)	NP40-soluble protein abundance (concentration: 1mM)	NP40-soluble protein abundance (concentration: 2mM)	NP40-soluble protein abundance (concentration: 4mM)	NP40-soluble protein abundance (concentration: 6mM)	NP40-soluble protein abundance (concentration: 8mM)	NP40-soluble protein abundance (concentration: 10mM)
EDC4 (UniProt Q6P2E9)	0.984 ± 0.029	1 ± 0.037	1.01 ± 0.045	1.01 ± 0.029	1.01 ± 0.039	1.02 ± 0.032	1.02 ± 0.057	1.04 ± 0.046
ERAP2 (UniProt Q6P179)	1.01 ± 0.015	0.994 ± 0.057	0.961 ± 0.029	0.977 ± 0.063	0.954 ± 0.043	0.957 ± 0.041	0.93 ± 0.038	0.92 ± 0.056
UniProt Q7Z5G4 and related entries	1.16 ± 0.033	1 ± 0.074	1.13 ± 0.13	1.13 ± 0.072	1.11 ± 0.11	0.96 ± 0.025	1.07 ± 0.18	0.928 ± 0.016
UniProt Q86UE8-2|Q86UE8	0.948 ± 0.026	0.974 ± 0.016	0.933 ± 0.011	0.924 ± 0.029	0.889 ± 0.016	0.955 ± 0.041	0.901 ± 0.018	0.914 ± 0.018
LRSAM1 (UniProt Q6UWE0)	1.11 ± 0.11	1.03 ± 0.091	0.998 ± 0.054	0.991 ± 0.054	1.05 ± 0.17	0.942 ± 0.033	0.985 ± 0.22	0.919 ± 0.13
CYB5R4 (UniProt Q7L1T6)	1.02 ± 0.058	1.05 ± 0.082	0.97 ± 0.079	0.98 ± 0.038	0.985 ± 0.032	0.933 ± 0.039	0.934 ± 0.082	0.91 ± 0.047
UniProt Q7Z5J4 and related entries	1 ± 0.039	1.03 ± 0.049	1.07 ± 0.034	1.1 ± 0.068	1.1 ± 0.036	1.16 ± 0.024	1.24 ± 0.11	1.3 ± 0.15
MICAL3 (UniProt Q7RTP6)	1.01 ± 0.1	0.962 ± 0.052	1.01 ± 0.12	1.07 ± 0.13	0.999 ± 0.12	0.967 ± 0.066	1.02 ± 0.077	1.08 ± 0.15
INTS5 (UniProt Q6P9B9)	1.05 ± 0.046	1.1 ± 0.039	1.14 ± 0.052	1.2 ± 0.12	1.21 ± 0.17	1.22 ± 0.18	1.23 ± 0.15	1.18 ± 0.11
GLT8D1 (UniProt Q68CQ7)	0.964 ± 0.075	0.955 ± 0.06	0.897 ± 0.085	0.951 ± 0.028	0.977 ± 0.085	0.931 ± 0.098	0.926 ± 0.076	0.911 ± 0.1
UniProt Q5VWP2	1.01 ± 0.087	0.986 ± 0.09	0.982 ± 0.11	0.927 ± 0.036	0.979 ± 0.019	0.963 ± 0.025	0.927 ± 0.048	0.8867 ± 0.0049
UniProt Q658Y4 and related entries	1.13 ± 0.12	1.1 ± 0.13	1 ± 0.042	1.07 ± 0.16	1.06 ± 0.13	1.04 ± 0.13	1.05 ± 0.089	1.01 ± 0.1
NFXL1 (UniProt Q6ZNB6)	1.04 ± 0.079	1.09 ± 0.1	1.05 ± 0.091	1.11 ± 0.067	1.13 ± 0.12	1.16 ± 0.13	1.12 ± 0.12	1.15 ± 0.11
NAIF1 (UniProt Q69YI7)	0.942 ± 0.03	0.913 ± 0.089	0.958 ± 0.082	0.914 ± 0.054	1 ± 0.02	0.947 ± 0.11	0.885 ± 0.018	1.03 ± 0.035
UniProt Q6YP21 and related entries	1.03 ± 0.046	1.02 ± 0.058	0.943 ± 0.043	0.928 ± 0.073	0.925 ± 0.087	0.9 ± 0.06	0.874 ± 0.042	0.834 ± 0.064
UniProt Q7KZN9 and related entries	1.07 ± 0.024	1.05 ± 0.11	0.98 ± 0.035	0.961 ± 0.022	0.939 ± 0.052	0.924 ± 0.037	0.907 ± 0.029	0.931 ± 0.042
